Test results from patent publication US9006150B2 (Vipergen ApS, priority 2004, dated 2015).

Assay: peptide synthesis
Conditions: conjugation step

Row | Substance | conjugation yield
1 | GLFYG-PEG-Vip068 | 18%
2 | GLFYG-Vip068 | 11%
